Counter-ions that a name gives are not always drawn. Some of the results follow. Most entries show no effect beyond the scatter of the controls. Where a SMILES comes first, the peptide text is derived from it. [ ]: non-standard residue; d: D form.
System: hPSC-derived cortical neurons (WA09)
Assay: KCl-induced FOS+/EGR-1+ double-positive nuclei fraction z-score (KCl minus unstimulated); higher = stronger activity-induced IEG response
Conditions: 5 µM; treatment: days 7-14 after plating, readout day 21

SMILES | KCl-induced FOS+/EGR-1+ double-positive nuclei fraction z-score
CC(C)C[C@@H]1NC(=O)[C@@H](C(C)C)NC(=O)[C@@H]2CCCN2C(=O)[C@@H](CC(=O)O)NC(=O)[C@@H](Cc2c[nH]c3ccccc23)NC1=O (cyclo(L[dW][dD]P[dV])) | 0.572
Cc1cc(/C=C/C#N)cc(C)c1Nc1ccnc(Nc2ccc(C#N)cc2)n1 [Rilpivirine] | 0.131
COc1cc(C(=O)NC2CCCNC2)cc(OC)c1OC (centres undefined) [Troxipide] | 0.628
CN1CCN(C(c2ccccc2)c2ccccc2)CC1 [Cyclizine 2HCl] | 1.01
NCCOCCOCCNC(=O)Cc1ccc(Nc2nc(NCc3ccc(F)cc3)nc(NCC3CCCCC3)n2)cc1 [AP-III-a4 (ENOblock)] | -1.09
CO[C@H]1/C=C/O[C@@]2(C)Oc3c(C)c(O)c4c(c3C2=O)C2=NC3(CCN(CC(C)C)CC3)NC2=C(NC(=O)/C(C)=C\C=C\[C@H](C)[C@H](O)[C@@H](C)[C@@H](O)[C@@H](C)[C@H](OC(C)=O)[C@@H]1C)C4=O [Rifabutin] | 1.32
O=C(Nc1cccc(Cl)c1)c1ccccn1 | 0.112
O=C(NCCO[N+](=O)[O-])c1cccnc1 [Nicorandil] | -0.842
O=C(O)P(=O)(O)O [Foscarnet Sodium] | 0.463
CN(C)CCOc1ccc(-c2nc(-c3ccncc3)c(-c3ccc4c(c3)CC/C4=N\O)[nH]2)cc1 | -0.684
CCNC(=O)[C@H]1O[C@@H](n2cnc3c(N)nc(NCCc4ccc(CCC(=O)O)cc4)nc32)[C@H](O)[C@@H]1O | 0.722
C/C(=C\c1ccc(C(=O)O)cc1)c1ccc2c(c1)C(C)(C)CCC2(C)C [TTNPB (Arotinoid Acid)] | 1.52
C=C[C@@]1(C)CC(=O)[C@]2(O)[C@@]3(C)[C@@H](O)CCC(C)(C)[C@@H]3[C@H](O)[C@H](OC(C)=O)[C@@]2(C)O1 [Forskolin] | 0.867
Cc1cc2c(F)c(Oc3ncnn4cc(OC[C@@H](C)O)c(C)c34)ccc2[nH]1 | -0.0669
Cc1cc(C)nc(SCC(=O)Nc2ncc(Cc3cccc4ccccc34)s2)n1 | 0.638
CCOC(=O)n1ccn(C)c1=S [Carbimazole] | -0.0584
COc1nccc(-c2c(-c3ccc(F)cc3)ncn2C2CCC(O)CC2)n1 (centres undefined) | 4.94

SMILES | KCl-induced FOS+/EGR-1+ double-positive nuclei fraction z-score
Nc1nc(O)c2ncn(CCC(CO)CO)c2n1 [Penciclovir] | 0.807
CCCCCCCCCCCCCCCCn1cc[n+](Cc2ccccc2)c1C | -0.164
Cc1cc(=O)oc2cc(O)ccc12 [4-Methylumbelliferone (4-MU)] | 1.13
N[C@@H](Cc1cc(I)c(Oc2cc(I)c(O)c(I)c2)c(I)c1)C(=O)O [L-Thyroxine] | 0.0531
O=C(NCc1ccc(Oc2ccccc2)cc1)c1nc(-c2cc(Br)c(O)c(Br)c2)no1 | 0.918
Nc1ccc(C(=O)O)cc1 [4-Aminobenzoic acid] | 1.19
CN1CCC(=C2c3ccccc3CC(=O)c3sccc32)CC1 [Ketotifen Fumarate] | -1.03
N[C@@H]1CN(c2c(F)cc3c(=O)c(C(=O)O)cn([C@@H]4C[C@@H]4F)c3c2Cl)CC12CC2 [Sitafloxacin Hydrate] | -0.264
C#Cc1cccc(Nc2ncnc3cc(OC)c(OCCCCCCC(=O)NO)cc23)c1 | -1.43
CN1CCCC(n2nc(Cc3ccc(Cl)cc3)c3ccccc3c2=O)CC1 (centres undefined) [Azelastine HCl] | -0.722
CCS(=O)(=O)N1CC(CC#N)(n2cc(-c3ncnc4[nH]ccc34)cn2)C1 | 0.394
CC[C@H](CO)Nc1nc(NCc2ccccc2)c2ncn(C(C)C)c2n1 [Roscovitine (Seliciclib_CYC202)] | 0.233
CCN(CC)Cc1ccc2cc(COC(=O)Nc3ccc(C(=O)NO)cc3)ccc2c1 [Givinostat (ITF2357)] | -2.13
CC(C)(C)OC(=O)N[C@H]1CCCCC/C=C\[C@@H]2C[C@@]2(C(=O)NS(=O)(=O)C2CC2)NC(=O)[C@@H]2C[C@@H](OC(=O)N3Cc4cccc(F)c4C3)CN2C1=O [Danoprevir (ITMN-191)] | 0.729
COC1=CC(c2cc3ccccc3[nH]2)=N/C1=C\c1[nH]c(C)cc1C [Obatoclax Mesylate (GX15-070)] | -0.356
C=C1C(=O)O[C@H]2[C@H]1CC/C(C)=C/CC[C@@]1(C)O[C@@H]21 [(-)-Parthenolide] | 0.0475
Cn1c(Nc2ccc(C(F)(F)F)cc2)nc2cc(Oc3ccnc(-c4ncc(C(F)(F)F)[nH]4)c3)ccc21 | -1.34

Part of the list above in a different format.
SMILES	KCl-induced FOS+/EGR-1+ double-positive nuclei fraction z-score
N[C@@H](Cc1cc(I)c(Oc2cc(I)c(O)c(I)c2)c(I)c1)C(=O)O [L-Thyroxine]	0.0531
O=C(NCc1ccc(Oc2ccccc2)cc1)c1nc(-c2cc(Br)c(O)c(Br)c2)no1	0.918
Nc1ccc(C(=O)O)cc1 [4-Aminobenzoic acid]	1.19
CN1CCC(=C2c3ccccc3CC(=O)c3sccc32)CC1 [Ketotifen Fumarate]	-1.03
N[C@@H]1CN(c2c(F)cc3c(=O)c(C(=O)O)cn([C@@H]4C[C@@H]4F)c3c2Cl)CC12CC2 [Sitafloxacin Hydrate]	-0.264
C#Cc1cccc(Nc2ncnc3cc(OC)c(OCCCCCCC(=O)NO)cc23)c1	-1.43
CN1CCCC(n2nc(Cc3ccc(Cl)cc3)c3ccccc3c2=O)CC1 (centres undefined) [Azelastine HCl]	-0.722
CCS(=O)(=O)N1CC(CC#N)(n2cc(-c3ncnc4[nH]ccc34)cn2)C1	0.394
CC[C@H](CO)Nc1nc(NCc2ccccc2)c2ncn(C(C)C)c2n1 [Roscovitine (Seliciclib_CYC202)]	0.233
CCN(CC)Cc1ccc2cc(COC(=O)Nc3ccc(C(=O)NO)cc3)ccc2c1 [Givinostat (ITF2357)]	-2.13

— the supplement of paper PMC11348887
